PubChem BioAssay AID1259405 | NCATS, 2018
The whole screen tested about 50,000 reagents; below is an unselected part. Over the whole deposit, about 4,000 (8%) got an active call. 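Mouse siRNA library applied to hamster cells; one well for each siRNA.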

- Test: 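Knock-downs that lift recombinant protein yield in hamster ovary cells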 (primary screen)
- Cells: Chinese hamster CHO-K1 ovary cells with stable secreted eGFP expression
- Knock-down reagent: single siRNA against mouse genes, 0.8 pmol siRNA per well (2 µl of 400 nM stock)
- Time to read-out: 3 days
- Measurement: 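Per-well intracellular GFP measured by laser scanning cytometry, plus viability from ATP luminescence, each relative to plate median of non-targeting control wells, in %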
- Scale: GFP, % of control: higher = more GFP per well, higher productivity; viability (ATP), % of control: higher = more viable cells (more ATP)
- Rule for the call: 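Called active when intracellular GFP, relative to negative control, is at or above 120%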

no.	gene	PubChem SID	GFP, % of control	viability (ATP), % of control	Call
1	Tlr8	SID363568614	98.3	80.9	inactive
2	Tlr8	SID363576006	69.9	58.7	inactive
3	Tlr8	SID363578822	63.4	63.4	inactive
4	Rp2	SID363555134	70	88.7	inactive
5	Rp2	SID363568581	52.2	51.9	inactive
6	Rp2	SID363586640	75.3	67.3	inactive
7	Ccs	SID363572796	86.8	48.6	inactive
8	Ccs	SID363578076	129	120	active
9	Ccs	SID363582300	78.9	152	inactive
10	Klf13	SID363573820	74.2	58.5	inactive
11	Klf13	SID363581564	47.8	82.3	inactive
12	Klf13	SID363584028	76.2	94.6	inactive
13	G2e3	SID363545800	63.4	68.2	inactive
14	G2e3	SID363549313	56.6	45.8	inactive
15	G2e3	SID363563119	90.3	91	inactive
16	Cdyl2	SID363575232	45.7	69.9	inactive
17	Cdyl2	SID363580864	69.7	88.2	inactive
18	Cdyl2	SID363582976	57.5	80.2	inactive
19	Gngt1	SID363570142	78.9	74.6	inactive
20	Gngt1	SID363576478	142	77	active
21	Gngt1	SID363579646	81.2	47.5	inactive
22	Slc8a1	SID363575132	107	73.6	inactive
23	Slc8a1	SID363580764	81.8	65.5	inactive
24	Slc8a1	SID363582876	79.1	86.6	inactive
25	Gapvd1	SID363542540	123	86.4	active
26	Gapvd1	SID363552031	58.3	66.2	inactive
27	Gapvd1	SID363559636	49.5	66	inactive
28	Tnfsf4	SID363541879	87.5	80	inactive
29	Tnfsf4	SID363553471	63.1	72.2	inactive
30	Tnfsf4	SID363566795	57.1	56.9	inactive
31	Mbtps2	SID363574557	81.9	74	inactive
32	Mbtps2	SID363575613	49.1	52.3	inactive
33	Mbtps2	SID363580189	65.6	46.8	inactive
34	Fgf2	SID363572668	92.5	65.8	inactive
35	Fgf2	SID363577948	118	72.1	inactive
36	Fgf2	SID363582172	95.9	107	inactive
37	Hk1	SID363570784	54.1	40.4	inactive
38	Pdia5	SID363568918	58.1	46.4	inactive
39	Pdia5	SID363576310	102	67.9	inactive
40	Pdia5	SID363579126	89.9	79.9	inactive
41	Pcbp2	SID363584441	87.4	83.3	inactive
42	Pcbp2	SID363589471	79.1	52.1	inactive
43	Slc27a5	SID363572473	101	81.5	inactive
44	Slc27a5	SID363577753	86.1	80.2	inactive
45	Slc27a5	SID363581977	111	117	inactive
46	Pcolce2	SID363582450	101	106	inactive
47	Pcolce2	SID363584210	110	94.8	inactive
48	Ldhal6b	SID363575101	66.3	61.4	inactive
49	Ldhal6b	SID363580733	79.3	64.8	inactive
50	Ldhal6b	SID363582845	95.8	85.9	inactive
51	Eif5	SID363553966	79.8	56.1	inactive
52	Eif5	SID363561923	113	70.2	inactive
53	Eif5	SID363565661	107	121	inactive
54	Stxbp6	SID363545772	70.9	88.3	inactive
55	Stxbp6	SID363549285	58.2	69.9	inactive
56	Stxbp6	SID363563091	41.5	35.7	inactive
57	Scrib	SID363555067	57	81.1	inactive
58	Scrib	SID363568514	20.7	40.1	inactive
59	Scrib	SID363586573	76.5	84.8	inactive

Reformatted: results already given
Ccs [SID363572796]
- GFP, % of control: 86.8
- viability (ATP), % of control: 48.6
- Call: inactive

Ccs [SID363578076]
- GFP, % of control: 129
- viability (ATP), % of control: 120
- Call: active

Ccs [SID363582300]
- GFP, % of control: 78.9
- viability (ATP), % of control: 152
- Call: inactive

Klf13 [SID363573820]
- GFP, % of control: 74.2
- viability (ATP), % of control: 58.5
- Call: inactive
